Some of the results follow.
Compound: C1=CC=C(C=C1)[C@H](COC2=CC3=C(C=C2)NC(=O)N3)NC(=O)C4=CC=CN(C4=O)CC5=CC(=C(C=C5)F)F
Assay: log2 fold change, soluble protein after heating vs DMSO (PISA); higher = thermal stabilisation; K562 cells, 10 uM, 30 min; active = over 0.2 and 3.5 SD of the protein, either way, in both replicates (recomputed)
How it was run: (§1)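 K562 cells (2×10^6 cells/mL) were treated with 10 μM compound for 30 min, and aliquots were heated for 3 min over 48°C-58°C. Pooled aliquots were extracted in PBS with 0.5% NP-40 at 4°C, and the supernatant after 21,000xg for 90 min was measured by TMTpro 16plex LC-MS/MS with channel sums equalised. Reported thermal stability, relative to control samples and from duplicates, is a log2 fold change.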

Protein sequences, listed by entry. Tags and fused reporters are not part of them. Lines headed by an entry give the natural chain unless they say otherwise; changes in a name come on top.
UniProt Q6GQQ9: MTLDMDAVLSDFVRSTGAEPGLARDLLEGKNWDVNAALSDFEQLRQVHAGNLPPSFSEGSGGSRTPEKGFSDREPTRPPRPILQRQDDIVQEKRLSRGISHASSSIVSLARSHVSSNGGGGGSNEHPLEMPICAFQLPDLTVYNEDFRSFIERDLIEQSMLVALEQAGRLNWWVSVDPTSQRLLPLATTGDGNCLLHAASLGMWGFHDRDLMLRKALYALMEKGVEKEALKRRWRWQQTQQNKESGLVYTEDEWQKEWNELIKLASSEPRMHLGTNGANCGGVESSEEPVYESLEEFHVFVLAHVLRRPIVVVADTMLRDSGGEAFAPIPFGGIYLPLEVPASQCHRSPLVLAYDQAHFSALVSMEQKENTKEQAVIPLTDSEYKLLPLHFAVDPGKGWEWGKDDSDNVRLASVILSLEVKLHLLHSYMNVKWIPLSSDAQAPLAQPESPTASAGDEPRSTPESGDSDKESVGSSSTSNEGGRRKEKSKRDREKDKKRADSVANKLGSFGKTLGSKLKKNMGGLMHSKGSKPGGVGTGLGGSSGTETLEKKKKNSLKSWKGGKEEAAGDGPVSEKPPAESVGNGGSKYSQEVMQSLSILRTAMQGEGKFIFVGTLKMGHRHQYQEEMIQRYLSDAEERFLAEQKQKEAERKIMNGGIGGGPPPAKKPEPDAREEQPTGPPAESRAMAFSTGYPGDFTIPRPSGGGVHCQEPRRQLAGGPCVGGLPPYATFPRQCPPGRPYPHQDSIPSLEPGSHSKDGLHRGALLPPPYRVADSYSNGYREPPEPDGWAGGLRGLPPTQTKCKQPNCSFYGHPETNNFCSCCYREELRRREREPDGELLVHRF
UniProt Q96SU4: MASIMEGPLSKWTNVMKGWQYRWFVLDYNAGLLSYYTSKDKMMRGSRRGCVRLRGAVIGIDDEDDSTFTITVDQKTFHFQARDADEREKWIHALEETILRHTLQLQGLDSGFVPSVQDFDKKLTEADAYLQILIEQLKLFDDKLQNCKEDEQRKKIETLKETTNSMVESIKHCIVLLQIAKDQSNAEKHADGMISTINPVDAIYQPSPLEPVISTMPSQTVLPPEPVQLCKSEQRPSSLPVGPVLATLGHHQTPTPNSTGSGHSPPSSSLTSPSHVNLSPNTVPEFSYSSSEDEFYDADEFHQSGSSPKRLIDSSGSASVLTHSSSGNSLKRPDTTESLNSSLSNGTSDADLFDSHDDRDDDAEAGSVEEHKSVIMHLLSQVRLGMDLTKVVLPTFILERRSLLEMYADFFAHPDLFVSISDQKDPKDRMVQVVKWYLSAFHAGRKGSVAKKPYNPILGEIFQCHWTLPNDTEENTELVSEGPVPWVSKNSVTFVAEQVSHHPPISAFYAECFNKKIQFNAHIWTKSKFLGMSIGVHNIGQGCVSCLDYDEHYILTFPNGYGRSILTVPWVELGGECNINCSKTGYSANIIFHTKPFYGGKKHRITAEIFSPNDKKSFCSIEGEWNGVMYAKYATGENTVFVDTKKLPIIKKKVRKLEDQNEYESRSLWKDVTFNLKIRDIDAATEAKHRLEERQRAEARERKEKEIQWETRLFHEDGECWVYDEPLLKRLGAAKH
UniProt O95989: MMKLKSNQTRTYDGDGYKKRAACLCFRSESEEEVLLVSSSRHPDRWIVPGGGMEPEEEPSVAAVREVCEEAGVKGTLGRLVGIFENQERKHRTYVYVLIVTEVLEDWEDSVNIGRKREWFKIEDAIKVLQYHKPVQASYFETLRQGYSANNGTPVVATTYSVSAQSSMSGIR
UniProt Q8IVD9: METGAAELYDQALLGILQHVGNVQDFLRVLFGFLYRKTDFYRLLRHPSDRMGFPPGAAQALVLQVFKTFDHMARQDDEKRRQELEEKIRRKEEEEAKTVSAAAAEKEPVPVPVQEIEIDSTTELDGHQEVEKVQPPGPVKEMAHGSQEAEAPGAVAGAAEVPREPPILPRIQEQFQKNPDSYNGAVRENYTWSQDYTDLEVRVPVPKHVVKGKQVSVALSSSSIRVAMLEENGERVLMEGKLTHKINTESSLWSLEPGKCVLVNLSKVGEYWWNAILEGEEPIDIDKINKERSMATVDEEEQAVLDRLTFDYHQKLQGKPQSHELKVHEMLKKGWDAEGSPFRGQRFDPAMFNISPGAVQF
UniProt Q96MF7: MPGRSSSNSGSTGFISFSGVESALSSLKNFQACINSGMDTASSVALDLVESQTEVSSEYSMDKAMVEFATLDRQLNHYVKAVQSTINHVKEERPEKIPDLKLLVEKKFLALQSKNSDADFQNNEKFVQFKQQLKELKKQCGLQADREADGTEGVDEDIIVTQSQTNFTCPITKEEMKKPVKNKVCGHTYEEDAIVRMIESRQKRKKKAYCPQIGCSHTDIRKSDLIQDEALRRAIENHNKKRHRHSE
UniProt O43482, whole entry, looked up: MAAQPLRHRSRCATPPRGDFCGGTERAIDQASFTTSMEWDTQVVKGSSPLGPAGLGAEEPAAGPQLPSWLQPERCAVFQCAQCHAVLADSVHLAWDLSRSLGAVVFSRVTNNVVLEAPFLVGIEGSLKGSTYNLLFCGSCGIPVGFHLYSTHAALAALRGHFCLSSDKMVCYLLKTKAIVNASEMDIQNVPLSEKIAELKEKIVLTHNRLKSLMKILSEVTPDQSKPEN
UniProt Q9Y530: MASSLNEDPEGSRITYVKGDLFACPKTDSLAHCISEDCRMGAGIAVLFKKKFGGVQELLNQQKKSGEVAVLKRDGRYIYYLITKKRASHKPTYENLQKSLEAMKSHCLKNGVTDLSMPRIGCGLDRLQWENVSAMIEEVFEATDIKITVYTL
UniProt Q8WZ82: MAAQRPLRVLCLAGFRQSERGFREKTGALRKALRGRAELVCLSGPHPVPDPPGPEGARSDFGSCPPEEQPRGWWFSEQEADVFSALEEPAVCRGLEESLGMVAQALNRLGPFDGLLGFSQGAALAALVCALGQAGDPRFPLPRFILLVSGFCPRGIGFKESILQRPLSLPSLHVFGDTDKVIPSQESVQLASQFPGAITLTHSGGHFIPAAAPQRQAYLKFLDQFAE
UniProt Q92621: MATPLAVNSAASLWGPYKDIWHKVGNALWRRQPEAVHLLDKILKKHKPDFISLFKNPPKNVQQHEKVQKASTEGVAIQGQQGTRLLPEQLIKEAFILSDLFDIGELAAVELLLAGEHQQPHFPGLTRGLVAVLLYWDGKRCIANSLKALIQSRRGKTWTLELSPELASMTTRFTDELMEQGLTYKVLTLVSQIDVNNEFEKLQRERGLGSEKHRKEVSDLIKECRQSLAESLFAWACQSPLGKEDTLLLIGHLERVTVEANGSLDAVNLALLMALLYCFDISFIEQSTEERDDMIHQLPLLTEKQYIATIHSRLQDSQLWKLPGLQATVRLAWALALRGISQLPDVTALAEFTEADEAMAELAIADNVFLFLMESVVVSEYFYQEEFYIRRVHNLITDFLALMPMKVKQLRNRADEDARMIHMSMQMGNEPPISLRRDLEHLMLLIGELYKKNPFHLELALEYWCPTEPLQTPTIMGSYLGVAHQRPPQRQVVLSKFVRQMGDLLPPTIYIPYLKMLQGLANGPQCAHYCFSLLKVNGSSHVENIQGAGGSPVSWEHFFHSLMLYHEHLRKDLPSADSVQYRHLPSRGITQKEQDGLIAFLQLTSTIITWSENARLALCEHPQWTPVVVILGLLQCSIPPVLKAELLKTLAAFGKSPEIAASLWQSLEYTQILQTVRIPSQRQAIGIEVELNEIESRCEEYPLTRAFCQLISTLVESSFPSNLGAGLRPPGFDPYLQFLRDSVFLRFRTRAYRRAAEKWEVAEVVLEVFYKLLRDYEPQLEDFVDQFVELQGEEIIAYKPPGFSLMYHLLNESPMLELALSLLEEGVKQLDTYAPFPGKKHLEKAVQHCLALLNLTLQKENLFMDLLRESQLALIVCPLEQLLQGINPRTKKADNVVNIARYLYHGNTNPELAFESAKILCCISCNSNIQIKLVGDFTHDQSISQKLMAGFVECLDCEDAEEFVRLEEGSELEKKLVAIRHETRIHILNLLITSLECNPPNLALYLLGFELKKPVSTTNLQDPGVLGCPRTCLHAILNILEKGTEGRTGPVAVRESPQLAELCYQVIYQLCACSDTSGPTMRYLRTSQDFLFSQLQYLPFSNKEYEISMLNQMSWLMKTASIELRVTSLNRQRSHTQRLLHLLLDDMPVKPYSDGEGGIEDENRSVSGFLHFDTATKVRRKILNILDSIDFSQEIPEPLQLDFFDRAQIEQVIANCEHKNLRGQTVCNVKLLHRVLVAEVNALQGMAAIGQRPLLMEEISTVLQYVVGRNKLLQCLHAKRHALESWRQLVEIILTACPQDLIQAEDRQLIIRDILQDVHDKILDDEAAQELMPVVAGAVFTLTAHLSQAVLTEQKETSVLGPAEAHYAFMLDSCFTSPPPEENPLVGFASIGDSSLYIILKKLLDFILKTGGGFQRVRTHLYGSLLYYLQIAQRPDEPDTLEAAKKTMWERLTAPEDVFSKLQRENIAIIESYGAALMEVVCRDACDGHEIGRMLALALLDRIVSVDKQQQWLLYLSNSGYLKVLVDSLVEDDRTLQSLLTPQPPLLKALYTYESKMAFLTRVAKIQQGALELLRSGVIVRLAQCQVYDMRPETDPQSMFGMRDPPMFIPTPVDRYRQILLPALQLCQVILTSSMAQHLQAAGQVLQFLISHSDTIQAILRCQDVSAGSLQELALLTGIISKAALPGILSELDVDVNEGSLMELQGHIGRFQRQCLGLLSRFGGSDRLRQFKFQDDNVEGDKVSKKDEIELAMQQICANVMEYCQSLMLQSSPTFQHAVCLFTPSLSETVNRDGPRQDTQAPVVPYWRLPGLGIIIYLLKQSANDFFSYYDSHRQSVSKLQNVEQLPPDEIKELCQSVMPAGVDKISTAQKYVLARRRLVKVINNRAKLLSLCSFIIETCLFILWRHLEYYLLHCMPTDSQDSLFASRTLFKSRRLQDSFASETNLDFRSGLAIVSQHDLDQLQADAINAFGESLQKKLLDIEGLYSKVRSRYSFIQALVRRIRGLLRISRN
UniProt Q9NPF4: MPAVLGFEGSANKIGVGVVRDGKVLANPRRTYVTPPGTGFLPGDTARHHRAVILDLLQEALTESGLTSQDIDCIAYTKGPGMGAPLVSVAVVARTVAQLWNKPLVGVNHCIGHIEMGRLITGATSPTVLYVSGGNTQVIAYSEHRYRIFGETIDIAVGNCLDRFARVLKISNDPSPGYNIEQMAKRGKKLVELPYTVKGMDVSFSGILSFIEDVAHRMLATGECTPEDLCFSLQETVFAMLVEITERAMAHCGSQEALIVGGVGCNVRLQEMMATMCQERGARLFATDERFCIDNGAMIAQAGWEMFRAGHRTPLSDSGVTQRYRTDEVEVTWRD
UniProt P0C025: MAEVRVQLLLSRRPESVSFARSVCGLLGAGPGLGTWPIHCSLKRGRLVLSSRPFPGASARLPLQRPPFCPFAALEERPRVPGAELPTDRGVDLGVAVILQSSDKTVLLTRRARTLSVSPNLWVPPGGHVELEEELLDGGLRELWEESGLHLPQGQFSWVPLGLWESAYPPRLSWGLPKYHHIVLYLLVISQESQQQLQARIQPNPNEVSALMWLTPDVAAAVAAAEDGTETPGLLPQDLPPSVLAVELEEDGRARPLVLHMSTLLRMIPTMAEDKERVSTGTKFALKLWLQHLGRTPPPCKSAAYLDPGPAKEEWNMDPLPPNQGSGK
UniProt Q9BZF1: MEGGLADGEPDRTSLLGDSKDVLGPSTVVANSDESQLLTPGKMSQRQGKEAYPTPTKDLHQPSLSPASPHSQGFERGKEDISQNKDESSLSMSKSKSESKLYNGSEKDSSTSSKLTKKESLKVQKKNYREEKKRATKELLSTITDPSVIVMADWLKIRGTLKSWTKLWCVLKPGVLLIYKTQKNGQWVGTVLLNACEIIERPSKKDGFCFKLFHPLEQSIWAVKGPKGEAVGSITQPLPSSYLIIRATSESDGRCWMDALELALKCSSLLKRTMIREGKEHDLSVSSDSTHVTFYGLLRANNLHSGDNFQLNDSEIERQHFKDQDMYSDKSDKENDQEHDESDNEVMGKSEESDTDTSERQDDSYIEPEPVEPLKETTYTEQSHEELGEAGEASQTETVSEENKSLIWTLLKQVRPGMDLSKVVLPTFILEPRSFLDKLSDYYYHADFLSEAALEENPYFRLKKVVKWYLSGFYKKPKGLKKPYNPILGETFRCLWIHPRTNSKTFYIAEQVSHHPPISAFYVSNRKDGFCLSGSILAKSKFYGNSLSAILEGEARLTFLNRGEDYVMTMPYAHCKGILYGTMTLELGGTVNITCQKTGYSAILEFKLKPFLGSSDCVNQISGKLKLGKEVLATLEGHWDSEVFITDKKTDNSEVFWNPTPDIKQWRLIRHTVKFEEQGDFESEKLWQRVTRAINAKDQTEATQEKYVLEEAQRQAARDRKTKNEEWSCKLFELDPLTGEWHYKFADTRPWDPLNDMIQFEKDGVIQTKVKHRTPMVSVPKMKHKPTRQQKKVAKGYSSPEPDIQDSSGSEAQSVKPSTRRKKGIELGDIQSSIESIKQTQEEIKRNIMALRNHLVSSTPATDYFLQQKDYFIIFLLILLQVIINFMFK

**Q.** How did the log2 fold change turn out when OTUD7B (UniProt Q6GQQ9) was run?
**A.** inactive: -0.332

**Q.** For OSBPL9 (UniProt Q96SU4), which log2 fold change is on record?
**A.** inactive: -0.067

**Q.** For OPTN (UniProt Q96CV9), which log2 fold change is on record?
**A.** inactive: 0.02

**Q.** How did the log2 fold change turn out when NT5DC1 (UniProt Q5TFE4) was run?
**A.** inactive: -0.036

**Q.** Which log2 fold change does the source give for OCRL (UniProt Q01968) here?
**A.** inactive: -0.123

**Q.** OPA1 isoform 2 (UniProt O60313) was tested. Which log2 fold change did it give?
**A.** inactive: -0.054

**Q.** Which log2 fold change does the source give for NTMT1 (UniProt Q9BV86) here?
**A.** inactive: 0.001

**Q.** For OAS3 (UniProt Q9Y6K5), which log2 fold change is on record?
**A.** inactive: -0.202

**Q.** NUCB2 (UniProt P80303) was tested. Which log2 fold change did it give?
**A.** inactive: 0.007

**Q.** NUDT3 (UniProt O95989) was tested. Which log2 fold change did it give?
**A.** inactive: 0.009

**Q.** NUMA1 (UniProt Q14980) was tested. Which log2 fold change did it give?
**A.** inactive: 0.027

**Q.** With NSUN5 isoform 2 (UniProt Q96P11) as the target, how does the log2 fold change read?
**A.** inactive: -0.075

**Q.** How did the log2 fold change turn out when NUDCD3 (UniProt Q8IVD9) was run?
**A.** inactive: -0.037

**Q.** Which log2 fold change does the source give for NUP160 (UniProt Q12769) here?
**A.** inactive: -0.013

**Q.** NSMCE2 (UniProt Q96MF7) was tested. Which log2 fold change did it give?
**A.** inactive: 0.074

**Q.** For PAAF1 (UniProt Q9BRP4), which log2 fold change is on record?
**A.** inactive: -0.012

**Q.** OGFOD1 (UniProt Q8N543) was tested. Which log2 fold change did it give?
**A.** inactive: -0.02

**Q.** With OGFOD3 (UniProt Q6PK18) as the target, how does the log2 fold change read?
**A.** inactive: 0.185

**Q.** Which log2 fold change does the source give for OTUB1 (UniProt Q96FW1) here?
**A.** inactive: -0.012

**Q.** Which log2 fold change does the source give for OSTM1 (UniProt Q86WC4) here?
**A.** inactive: 0.023

**Q.** Which log2 fold change does the source give for OGN (UniProt P20774) here?
**A.** inactive: -0.147

**Q.** NUP93 (UniProt Q8N1F7) was tested. Which log2 fold change did it give?
**A.** inactive: -0.076

**Q.** How did the log2 fold change turn out when OIP5 (UniProt O43482) was run?
**A.** inactive: 0.023

**Q.** OARD1 (UniProt Q9Y530) was tested. Which log2 fold change did it give?
**A.** inactive: -0.059

**Q.** Which log2 fold change does the source give for OVCA2 (UniProt Q8WZ82) here?
**A.** inactive: -0.152

**Q.** How did the log2 fold change turn out when OTUD6B (UniProt Q8N6M0) was run?
**A.** inactive: -0.051

**Q.** NUP214 isoform 5 (UniProt P35658) was tested. Which log2 fold change did it give?
**A.** inactive: -0.033

**Q.** With NUP205 (UniProt Q92621) as the target, how does the log2 fold change read?
**A.** inactive: -0.004

**Q.** Which log2 fold change does the source give for OSTF1 (UniProt Q92882) here?
**A.** inactive: -0.03

**Q.** For OSGEP (UniProt Q9NPF4), which log2 fold change is on record?
**A.** inactive: -0.013

**Q.** Which log2 fold change does the source give for NVL (UniProt O15381) here?
**A.** inactive: -0.039

**Q.** Which log2 fold change does the source give for NUTF2 (UniProt P61970) here?
**A.** inactive: 0.037

**Q.** With NUP62 (UniProt P37198) as the target, how does the log2 fold change read?
**A.** inactive: -0.039

**Q.** Which log2 fold change does the source give for NUDT17 (UniProt P0C025) here?
**A.** inactive: 0.336

**Q.** OSBPL8 (UniProt Q9BZF1) was tested. Which log2 fold change did it give?
**A.** inactive: -0.051

**Q.** For NUP188 (UniProt Q5SRE5), which log2 fold change is on record?
**A.** inactive: -0.016

**Q.** P4HA1 (UniProt P13674) was tested. Which log2 fold change did it give?
**A.** inactive: 0.037

Compound: CC1=C(SC2=C1C(=N[C@H](C3=NN=C(N32)C)CC(=O)N)C4=CC=C(C=C4)Cl)C
Assay: as above
How it was run: as §1

**Q.** Which log2 fold change does the source give for OTUD7B (UniProt Q6GQQ9) here?
**A.** inactive: 0.095

**Q.** How did the log2 fold change turn out when OSBPL9 (UniProt Q96SU4) was run?
**A.** inactive: -0.043

**Q.** How did the log2 fold change turn out when OPTN (UniProt Q96CV9) was run?
**A.** inactive: 0.007

**Q.** Which log2 fold change does the source give for NT5DC1 (UniProt Q5TFE4) here?
**A.** inactive: 0.075

**Q.** For OCRL (UniProt Q01968), which log2 fold change is on record?
**A.** inactive: 0.058

**Q.** For OPA1 isoform 2 (UniProt O60313), which log2 fold change is on record?
**A.** inactive: 0.028

**Q.** How did the log2 fold change turn out when NTMT1 (UniProt Q9BV86) was run?
**A.** inactive: 0.034

**Q.** For NUCB2 (UniProt P80303), which log2 fold change is on record?
**A.** inactive: 0.014

**Q.** Which log2 fold change does the source give for NUDT3 (UniProt O95989) here?
**A.** inactive: 0.039

**Q.** Which log2 fold change does the source give for NUMA1 (UniProt Q14980) here?
**A.** inactive: -0.05

**Q.** Which log2 fold change does the source give for NSUN5 isoform 2 (UniProt Q96P11) here?
**A.** inactive: -0.04

**Q.** NUDCD3 (UniProt Q8IVD9) was tested. Which log2 fold change did it give?
**A.** inactive: 0.033

**Q.** NUP160 (UniProt Q12769) was tested. Which log2 fold change did it give?
**A.** inactive: 0.043

**Q.** For NSMCE2 (UniProt Q96MF7), which log2 fold change is on record?
**A.** inactive: 0.031

**Q.** Which log2 fold change does the source give for PAAF1 (UniProt Q9BRP4) here?
**A.** inactive: 0.043

**Q.** Which log2 fold change does the source give for OGFOD1 (UniProt Q8N543) here?
**A.** inactive: 0.047

**Q.** How did the log2 fold change turn out when OTUB1 (UniProt Q96FW1) was run?
**A.** inactive: 0.043

**Q.** OSTM1 (UniProt Q86WC4) was tested. Which log2 fold change did it give?
**A.** inactive: 0.036

**Q.** With OGN (UniProt P20774) as the target, how does the log2 fold change read?
**A.** inactive: -0.058

**Q.** Which log2 fold change does the source give for NUP93 (UniProt Q8N1F7) here?
**A.** inactive: 0.001

**Q.** OIP5 (UniProt O43482) was tested. Which log2 fold change did it give?
**A.** inactive: 0.074

**Q.** OARD1 (UniProt Q9Y530) was tested. Which log2 fold change did it give?
**A.** inactive: 0.037

**Q.** For OTUD6B (UniProt Q8N6M0), which log2 fold change is on record?
**A.** inactive: 0.022

**Q.** For NUP214 isoform 5 (UniProt P35658), which log2 fold change is on record?
**A.** inactive: -0.031

**Q.** For NUP205 (UniProt Q92621), which log2 fold change is on record?
**A.** inactive: 0.035

**Q.** How did the log2 fold change turn out when OSTF1 (UniProt Q92882) was run?
**A.** inactive: 0.058

**Q.** OSGEP (UniProt Q9NPF4) was tested. Which log2 fold change did it give?
**A.** inactive: -0.002

**Q.** Which log2 fold change does the source give for NUTF2 (UniProt P61970) here?
**A.** inactive: 0.078

**Q.** For NUP62 (UniProt P37198), which log2 fold change is on record?
**A.** inactive: 0.015

**Q.** For NUDT17 (UniProt P0C025), which log2 fold change is on record?
**A.** inactive: 0.058

**Q.** OSBPL8 (UniProt Q9BZF1) was tested. Which log2 fold change did it give?
**A.** inactive: -0.071

**Q.** Which log2 fold change does the source give for NUP188 (UniProt Q5SRE5) here?
**A.** inactive: 0.011

**Q.** With P4HA1 (UniProt P13674) as the target, how does the log2 fold change read?
**A.** inactive: -0.093
